{"source": "PubChem BioAssay AID1259424, University of Nebraska Medical Center, 2018", "purpose": "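Find knockdowns that reproduce the expression shifts seen after KSR1 loss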 (primary screen)", "cell system": "human HCT116 colon cancer cells", "reagent": "siRNA pool against human genes, 50 nM", "measured": "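Log2 levels of six mRNAs (branched-DNA multiplex), adjusted by two reference genes and the non-targeting median, then scored against the average KSR1 knockdown pattern as Pearson r and euclidean distance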", "reading the numbers": "mean correlation with KSR1 profile: higher = expression change more like KSR1 knockdown", "note": "In all, the deposit lists about 14,000 reagents; this is an unselected part. 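Higher correlation or smaller distance means closer resemblance to KSR1 loss; control wells, including KSR1 knockdowns, recur on many plates.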 A reagent listed more than once was tested more than once; the source does not tell the runs apart. Further read-outs or replicates are left out here. No sequences are given here. Not given: the time to read-out."}
The first 2 records, ahead of the listing:
{"gene knocked down":"LHFPL6 (LHFPL tetraspan subfamily member 6)","mean correlation with KSR1 profile":0.287}
{"gene knocked down":"VAV3 (vav guanine nucleotide exchange factor 3)","mean correlation with KSR1 profile":-0.254}

The list itself, repeating the preview:
{"gene knocked down":"LHFPL6 (LHFPL tetraspan subfamily member 6)","mean correlation with KSR1 profile":0.287}
{"gene knocked down":"VAV3 (vav guanine nucleotide exchange factor 3)","mean correlation with KSR1 profile":-0.254}
{"gene knocked down":"PRND (prion like protein doppel)","mean correlation with KSR1 profile":-0.0489}
{"gene knocked down":"PAX6 (paired box 6)","mean correlation with KSR1 profile":-0.0607}
{"gene knocked down":"CYB5R2 (cytochrome b5 reductase 2)","mean correlation with KSR1 profile":-0.215}
{"gene knocked down":"RAB2A (RAB2A, member RAS oncogene family)","mean correlation with KSR1 profile":-0.281}
{"gene knocked down":"JAGN1 (jagunal vesicle mediated transporter 1)","mean correlation with KSR1 profile":0.761}
{"gene knocked down":"H4C3 (H4 clustered histone 3)","mean correlation with KSR1 profile":-0.124}
{"gene knocked down":"NDUFB5 (NADH:ubiquinone oxidoreductase subunit B5)","mean correlation with KSR1 profile":0.14}
{"gene knocked down":"REL (REL proto-oncogene, NF-kB subunit)","mean correlation with KSR1 profile":-0.175}
{"gene knocked down":"ADIRF (adipogenesis regulatory factor)","mean correlation with KSR1 profile":-0.422}
{"gene knocked down":"ZNF140 (zinc finger protein 140)","mean correlation with KSR1 profile":-0.288}
{"gene knocked down":"KCNQ1 (potassium voltage-gated channel subfamily Q member 1)","mean correlation with KSR1 profile":-0.778}
{"gene knocked down":"ZBTB37 (zinc finger and BTB domain containing 37)","mean correlation with KSR1 profile":0.813}
{"gene knocked down":"MRPS18A (mitochondrial ribosomal protein S18A)","mean correlation with KSR1 profile":-0.13}
{"gene knocked down":"PCDHGA2 (protocadherin gamma subfamily A, 2)","mean correlation with KSR1 profile":-0.00306}
{"gene knocked down":"USB1 (U6 snRNA biogenesis phosphodiesterase 1)","mean correlation with KSR1 profile":-0.203}
{"gene knocked down":"KATNAL1 (katanin catalytic subunit A1 like 1)","mean correlation with KSR1 profile":0.495}
{"gene knocked down":"C3orf52 (chromosome 3 open reading frame 52)","mean correlation with KSR1 profile":0.39}
{"gene knocked down":"STX6 (syntaxin 6)","mean correlation with KSR1 profile":0.188}
{"gene knocked down":"PDE6C (phosphodiesterase 6C)","mean correlation with KSR1 profile":-0.317}
{"gene knocked down":"HGS (hepatocyte growth factor-regulated tyrosine kinase substrate)","mean correlation with KSR1 profile":0.111}
{"gene knocked down":"TSC1 (TSC complex subunit 1)","mean correlation with KSR1 profile":-0.432}
{"gene knocked down":"BCORL1 (BCL6 corepressor like 1)","mean correlation with KSR1 profile":0.383}
{"gene knocked down":"AAMP (angio associated migratory cell protein)","mean correlation with KSR1 profile":0.58}
{"gene knocked down":"CCL2 (C-C motif chemokine ligand 2)","mean correlation with KSR1 profile":0.409}
{"gene knocked down":"CCL2 (C-C motif chemokine ligand 2)","mean correlation with KSR1 profile":0.0221}
{"gene knocked down":"ODAM (odontogenic, ameloblast associated)","mean correlation with KSR1 profile":-0.694}
{"gene knocked down":"MGMT (O-6-methylguanine-DNA methyltransferase)","mean correlation with KSR1 profile":-0.185}
{"gene knocked down":"MBIP (MAP3K12 binding inhibitory protein 1)","mean correlation with KSR1 profile":0.676}
{"gene knocked down":"GAREM1 (GRB2 associated regulator of MAPK1 subtype 1)","mean correlation with KSR1 profile":-0.549}
{"gene knocked down":"COTL1 (coactosin like F-actin binding protein 1)","mean correlation with KSR1 profile":-0.495}
{"gene knocked down":"SELENOW (selenoprotein W)","mean correlation with KSR1 profile":0.33}
{"gene knocked down":"B3GALNT1","mean correlation with KSR1 profile":0.111}
{"gene knocked down":"TM2D3 (TM2 domain containing 3)","mean correlation with KSR1 profile":-0.0539}
{"gene knocked down":"DNAL4 (dynein axonemal light chain 4)","mean correlation with KSR1 profile":-0.248}
